Assay results: patent US9243281B2, “Neuroprotective chemicals and methods for identifying and using same” (Board of Regents of The University of Texas System, priority 2013, dated 2016)

Sequences of proteins named here, by UniProt entry; tags and fusion partners are left off. A change or cut given only in a name is not applied to a line headed by its entry.
UniProt P43490: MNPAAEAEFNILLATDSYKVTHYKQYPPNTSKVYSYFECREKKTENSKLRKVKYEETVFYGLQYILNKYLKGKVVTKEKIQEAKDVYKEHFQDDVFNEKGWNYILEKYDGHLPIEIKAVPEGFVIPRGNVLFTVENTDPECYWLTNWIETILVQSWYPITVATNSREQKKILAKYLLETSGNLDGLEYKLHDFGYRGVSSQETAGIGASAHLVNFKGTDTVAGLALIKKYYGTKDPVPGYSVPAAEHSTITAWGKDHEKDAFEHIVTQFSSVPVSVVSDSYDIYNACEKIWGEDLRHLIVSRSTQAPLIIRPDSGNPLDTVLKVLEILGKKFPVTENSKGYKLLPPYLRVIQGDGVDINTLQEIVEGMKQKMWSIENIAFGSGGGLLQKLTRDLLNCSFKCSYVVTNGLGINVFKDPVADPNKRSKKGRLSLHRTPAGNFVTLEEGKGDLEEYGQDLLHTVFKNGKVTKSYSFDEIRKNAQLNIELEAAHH

Target: T1, p70 (NAMPT) (Homo sapiens, UniProt P43490)
T1 construct: endogenous in cells; host or cells: H2122 lung cancer cells
Experiment: binding competition for photo-crosslinking of P7C3-S326 to p70 in H2122 cells
Conditions: 0.3 μM P7C3-S326 plus 5 μM competitor, p70 band intensity, P7C3-S326 alone compared with plus competitor, vehicle 1.0
Procedure: Cultured cells were co-exposed to P7C3-S326 (0.3 uM) and the individual P7C3 variants (5 uM), exposed to UV light, lysed, clicked to a fluorescent dye and run on SDS gels (FIG. 11).
P7C3-S326 was diluted to 0.3 μM in culture medium to treat H2122 cells. After incubation at 37° C. for 2 hours, H2122 cells were irradiated for 15 minutes under 306 nm ultraviolet light in a Stratalinker 2400 (Stratagene). Cells were then harvested by dissolving in 1% SDS lysis buffer 50 mM HEPES, pH 8.0, 2 mM MgCl2, 10 mM KCl, 1% SDS, 50 units/ml of Benzonase (Sigma), supplemented with Sigmafast protease inhibitor (Sigma).
The reaction was incubated at room temperature with constant agitation at 1,000 rpm on a thermomixer (Eppendorf) for 1 hour. Samples were then mixed with SDS sample loading buffer and loaded on an 8% SDS-PAGE gel, separated, and imaged using a Typhoon imager (filter settings: excitation 533 nm, emission 555 nm, and high sensitivity).
H2122 cells were incubated with the P7C3-S326 (0.3 μM) in the absence or presence of P7C3 analogs for 2 hours following by UV crosslinking. […] The samples were run on SDS-PAGE gels scanned using a Typhoon Imager. The p70 band intensity was analyzed and quantified by Image J, and the relative intensity in each assay was normalized to that of the DMSO control.

Compound: CN(C)CCCN1c2ccccc2CCc2ccc(Cl)cc21.Cl [S85, Clomipramine, reference compound]
- Binding competition: 0.9
